From publication PMC10688608
No constants are given. Whether binding was seen depends on the method and setting. Binding seen in cells or lysates may run through a third protein. Some binding calls cover weakened binding; strength is not graded here.

Sequences of proteins named here, by UniProt entry; tags and fusion partners are left off.
UniProt Q96EB6: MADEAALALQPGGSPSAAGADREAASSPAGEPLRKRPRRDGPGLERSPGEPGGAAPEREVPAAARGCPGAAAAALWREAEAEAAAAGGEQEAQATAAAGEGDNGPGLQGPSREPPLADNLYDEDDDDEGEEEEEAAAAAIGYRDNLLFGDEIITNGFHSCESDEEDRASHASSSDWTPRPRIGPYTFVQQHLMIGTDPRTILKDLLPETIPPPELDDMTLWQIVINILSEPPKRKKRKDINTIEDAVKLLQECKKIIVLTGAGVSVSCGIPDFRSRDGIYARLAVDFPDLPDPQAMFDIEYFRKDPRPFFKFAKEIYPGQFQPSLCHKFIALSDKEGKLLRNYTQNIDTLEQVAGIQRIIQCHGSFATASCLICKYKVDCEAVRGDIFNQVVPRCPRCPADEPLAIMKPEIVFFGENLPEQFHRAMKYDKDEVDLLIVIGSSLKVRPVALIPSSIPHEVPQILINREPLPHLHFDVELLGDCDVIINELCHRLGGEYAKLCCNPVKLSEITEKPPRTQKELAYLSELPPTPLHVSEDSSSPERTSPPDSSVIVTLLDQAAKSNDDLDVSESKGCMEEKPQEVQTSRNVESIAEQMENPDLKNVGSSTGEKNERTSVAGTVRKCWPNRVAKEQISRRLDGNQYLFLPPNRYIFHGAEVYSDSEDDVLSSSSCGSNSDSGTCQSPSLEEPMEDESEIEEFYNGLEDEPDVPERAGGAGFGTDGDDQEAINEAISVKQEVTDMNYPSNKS
UniProt O75376: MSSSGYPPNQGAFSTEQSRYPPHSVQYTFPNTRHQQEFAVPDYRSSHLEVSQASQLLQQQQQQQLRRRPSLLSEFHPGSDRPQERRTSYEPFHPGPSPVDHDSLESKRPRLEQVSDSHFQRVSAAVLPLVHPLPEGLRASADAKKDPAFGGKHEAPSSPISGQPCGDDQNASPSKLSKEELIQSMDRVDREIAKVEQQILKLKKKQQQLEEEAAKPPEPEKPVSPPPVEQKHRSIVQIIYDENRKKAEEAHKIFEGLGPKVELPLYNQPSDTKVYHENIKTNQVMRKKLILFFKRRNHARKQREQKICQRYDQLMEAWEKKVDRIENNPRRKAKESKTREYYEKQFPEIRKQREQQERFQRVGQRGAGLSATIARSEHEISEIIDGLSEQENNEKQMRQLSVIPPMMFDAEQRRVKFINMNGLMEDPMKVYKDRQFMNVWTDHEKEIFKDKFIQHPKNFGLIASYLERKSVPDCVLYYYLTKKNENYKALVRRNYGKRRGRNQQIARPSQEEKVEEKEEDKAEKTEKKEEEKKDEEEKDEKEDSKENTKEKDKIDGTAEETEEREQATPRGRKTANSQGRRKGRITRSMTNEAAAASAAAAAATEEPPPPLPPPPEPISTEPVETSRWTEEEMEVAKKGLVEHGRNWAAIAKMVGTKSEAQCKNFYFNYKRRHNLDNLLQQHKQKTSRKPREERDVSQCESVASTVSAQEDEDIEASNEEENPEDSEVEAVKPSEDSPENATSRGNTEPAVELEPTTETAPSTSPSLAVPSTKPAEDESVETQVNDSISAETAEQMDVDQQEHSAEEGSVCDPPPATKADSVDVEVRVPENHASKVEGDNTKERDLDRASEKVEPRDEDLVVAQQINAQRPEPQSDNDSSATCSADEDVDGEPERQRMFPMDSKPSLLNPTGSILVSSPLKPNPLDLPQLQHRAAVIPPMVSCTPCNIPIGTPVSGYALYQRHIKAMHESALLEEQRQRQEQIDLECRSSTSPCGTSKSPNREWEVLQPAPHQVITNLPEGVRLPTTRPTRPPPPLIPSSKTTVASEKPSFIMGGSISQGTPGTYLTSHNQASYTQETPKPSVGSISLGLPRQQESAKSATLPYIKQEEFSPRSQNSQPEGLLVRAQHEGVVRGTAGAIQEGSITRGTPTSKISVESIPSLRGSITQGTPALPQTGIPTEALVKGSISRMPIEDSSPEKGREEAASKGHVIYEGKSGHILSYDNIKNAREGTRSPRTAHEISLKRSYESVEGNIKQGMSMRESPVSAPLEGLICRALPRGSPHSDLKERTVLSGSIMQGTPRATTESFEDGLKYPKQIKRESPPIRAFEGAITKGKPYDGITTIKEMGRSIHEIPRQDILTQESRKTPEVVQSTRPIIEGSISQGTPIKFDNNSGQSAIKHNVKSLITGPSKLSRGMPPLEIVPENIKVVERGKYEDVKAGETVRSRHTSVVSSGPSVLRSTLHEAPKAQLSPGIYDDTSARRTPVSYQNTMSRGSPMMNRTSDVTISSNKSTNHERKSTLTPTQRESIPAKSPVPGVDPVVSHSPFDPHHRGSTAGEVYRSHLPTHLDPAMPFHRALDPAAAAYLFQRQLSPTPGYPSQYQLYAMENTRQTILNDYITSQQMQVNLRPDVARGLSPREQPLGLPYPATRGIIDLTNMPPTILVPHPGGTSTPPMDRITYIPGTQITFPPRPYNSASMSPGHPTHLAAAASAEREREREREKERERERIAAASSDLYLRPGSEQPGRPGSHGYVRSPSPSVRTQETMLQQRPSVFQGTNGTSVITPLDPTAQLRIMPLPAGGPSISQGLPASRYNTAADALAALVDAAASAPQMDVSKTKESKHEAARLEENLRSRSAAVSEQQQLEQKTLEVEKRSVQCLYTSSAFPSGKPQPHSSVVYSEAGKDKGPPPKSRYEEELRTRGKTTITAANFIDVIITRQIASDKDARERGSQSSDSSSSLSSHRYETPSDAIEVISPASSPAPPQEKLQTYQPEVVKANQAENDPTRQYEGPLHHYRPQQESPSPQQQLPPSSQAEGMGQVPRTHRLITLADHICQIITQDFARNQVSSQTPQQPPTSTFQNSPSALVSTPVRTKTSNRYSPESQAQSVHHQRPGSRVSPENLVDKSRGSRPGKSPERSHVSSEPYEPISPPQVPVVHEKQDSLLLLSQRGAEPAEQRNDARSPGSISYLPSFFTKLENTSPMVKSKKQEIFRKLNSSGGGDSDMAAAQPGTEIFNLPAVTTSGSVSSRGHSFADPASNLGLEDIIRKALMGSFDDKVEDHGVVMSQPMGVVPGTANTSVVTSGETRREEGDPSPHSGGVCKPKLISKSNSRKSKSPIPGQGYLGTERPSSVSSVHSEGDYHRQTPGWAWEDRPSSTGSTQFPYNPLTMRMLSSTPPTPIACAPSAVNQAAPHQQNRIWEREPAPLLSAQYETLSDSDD

Biological target: Sirtuin 1 (human (endogenous in HEK-293T)) (UniProt Q96EB6)
Assay: co-IP; anti-SIRT1 antibody or IgG isotype control; HEK-293T cells transfected with empty vector or Snhg9-encoding vector; detection by immunoblot

binding: binds
Substance: nuclear receptor corepressor 1 (from UniProt O75376 1-2440)
